PubChem BioAssay AID686943, Drosophila RNAi Screening Center | 2013
The screen tested about 23,000 reagents; this is an unselected part of those that have a named target and a result. 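Extra replicates exist only for a retested subset of genes; insulin dose and duration not given; both raised and lowered dpERK matter.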 Further read-outs or replicates are left out here. No sequences are given here. Not given: the amount of reagent, the time to read-out.

Test: 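Fly genes whose loss alters ERK activation after insulin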 (primary screen)
Cell system: Drosophila S2R+ haemocyte-like cells expressing YFP-tagged ERK (Rolled)
Reagent: long dsRNA against Drosophila genes
Challenge: insulin stimulation versus unstimulated cells; dose and duration not given
Read-out: 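Per-plate z-scores of phospho-ERK immunostaining normalised to YFP-tagged ERK, measured with and without insulin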
Scale: replicate 1, z-score of dpERK with insulin: higher = more active ERK per ERK-YFP after insulin

The opening 3 records, to show the layout:
| target gene | DRSC id | replicate 1, z-score of dpERK with insulin |
| --- | --- | --- |
| MED8 (Mediator complex subunit 8) | DRSC06426 | 3.32 |
| CG6688 | DRSC16094 | 0.06 |
| CG8891 | DRSC03120 | 0.18 |

Results, from the start:
| target gene | DRSC id | replicate 1, z-score of dpERK with insulin |
| --- | --- | --- |
| MED8 (Mediator complex subunit 8) | DRSC06426 | 3.32 |
| CG6688 | DRSC16094 | 0.06 |
| CG8891 | DRSC03120 | 0.18 |
| CG10163 | DRSC09710 | 0.02 |
| QC (Glutaminyl cyclase) | DRSC09736 | -0.39 |
| cv (crossveinless) | DRSC17833 | -0.2 |
| RagC-D (Ras-related GTP binding C/D) | DRSC07239 | 0.22 |
| Mys45A (Mystery 45A) | DRSC07067 | -0.34 |
| Mst89B | DRSC16748 | 0.1 |
| Fic (Fic domain-containing protein) | DRSC03247 | 0 |
| CG46385 | DRSC06425 | -4.27 |
| CG46385 | DRSC06557 | 0.32 |
| BaraB (Baramicin B) | DRSC06420 | -0.2 |
| CG15142 | DRSC02443 | -0.77 |
| Snx3 (Sorting nexin 3) | DRSC16027 | 0.25 |
| CG14573 | DRSC11734 | 1.3 |
| CG30419 | DRSC04208 | -0.74 |
| CG30419 | DRSC04209 | 0.18 |
| CG30419 | DRSC22519 | 0.26 |
| Pxt (Peroxinectin-like) | DRSC17040 | 1.2 |
| CG11562 | DRSC00316 | -0.32 |
| CG9452 | DRSC11075 | 1.05 |
| stet (stem cell tumor) | DRSC08246 | 0.39 |
| stet (stem cell tumor) | DRSC08283 | 1.78 |
| DCTN2-p50 (Dynactin 2, p50 subunit) | DRSC07132 | 0.15 |
| ctp (cut up) | DRSC18758 | -3.04 |
| msl-2 (male-specific lethal 2) | DRSC00829 | 1.22 |
| TotF (Turandot F) | DRSC02305 | -0.65 |
| Pgcl (Pepsinogen C-like) | DRSC18815 | -0.21 |
| beta-PheRS (Phenylalanyl-tRNA synthetase, beta-subunit) | DRSC15859 | -0.45 |
| CG34217 | DRSC05083 | -0.99 |
| Porin2 | DRSC02584 | 1.08 |
| ebi | DRSC00816 | 0.17 |
| CG34284 | DRSC14773 | -0.94 |
| mat (materazzi) | DRSC08376 | -0.42 |
| mat (materazzi) | DRSC22841 | 0.59 |
| CG31141 | DRSC13646 | 0.33 |
| CG13198 | DRSC06323 | 0.67 |
| lncRNA:CR43491 (long non-coding RNA:CR43491) | DRSC19184 | -0.29 |
